Measurements from PubChem BioAssay AID1487 (National Center for Advancing Translational Sciences (NCATS), 2009).
Several values for one entry are separate records, joined by “and”; a condition that tells them apart may be missing. Identical values can stand only once. This is one part of the list. Shown are side measurements of this screen, not its main read-out; they come without a call. Compounds called inactive in the main read-out are mostly missing here. Words in brackets tell the shape of the fitted curve; partial curves, single points and poor fits give uncertain potencies.

Test: qHTS Assay for Modulators of Lamin A Splicing
Settings: HeLa LMNA splicing GFP/RFP minigene ratio, 48 h
Method in brief: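 Read-out is the ratio of GFP to DsRed2 object intensity, acquired by 488 nm laser-scanning cytometry on HeLa lamin A-EGFP minigene reporter cells. Compound incubation 48 hrs at 37 °C in Opti-MEM with 2% FBS; DMSO 0.5% final.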

[1] = measured here: GFP splicing reporter channel
[2] = measured here: RFP viability control channel

Row | Compound | AC50 [1] | AC50 [2]
1 | O=C(NCc1cccc(Cl)c1)c1ccc2c(c1)nc1n2CCOC1 | 20 µM [rising, partial curve] | 35.5 µM [rising, single point]
2 | O=C(C1COc2cc(S(=O)(=O)Nc3ccc(Cl)cc3)ccc2O1)N1CCCC1 (stereo not given) |  | 0.00447 µM [falling, full curve, poor fit]
3 | C/C(CCc1oc2ccc(Br)cc2c1-c1ccc(C)o1)=N/O | 12.6 µM [rising, partial curve, poor fit] | 20 µM [rising, partial curve]
4 | CC(NC(=O)CCC(=O)NC(C)C1COc2ccccc2O1)C1COc2ccccc2O1 (stereo not given) | 7.08 µM [rising, full curve, poor fit] | 11.2 µM [rising, partial curve]
5 | COc1ccc(C(=O)C2CCCN(S(=O)(=O)C(C)C)C2)c(C)c1 (stereo not given) |  | 1.58 µM [falling, partial curve]
6 | COc1ccccc1N1CCN(C(=O)CSc2nc(C)c(Cc3ccccc3)c(=O)[nH]2)CC1 | 12.6 µM [rising, partial curve, poor fit] | 11.2 µM [rising, partial curve]
7 | COc1cc(C2C(C(=O)Nc3ccccc3)=C(C)Nc3nc(SCC(=O)c4ccc(C)cc4)nn32)ccc1O (stereo not given) |  | 6.31 µM [falling, partial curve, poor fit]
8 | O=C(CSc1nnnn1-c1ccc2c(c1)CCC2)Nc1ccc2c(c1)OCCO2 | 35.5 µM [rising, single point] | 31.6 µM [rising, single point]
9 | Cc1ccc(NC(=O)C2CCN(S(=O)(=O)c3c(C)noc3/C=C/c3ccco3)CC2)nc1 |  | 14.1 µM [rising, partial curve]
10 | CCCC(=O)O[C@]1(C(=O)COC(C)=O)CC[C@H]2[C@@H]3C[C@H](F)C4=CC(=O)C=C[C@]4(C)[C@@]3(F)[C@@H](O)C[C@@]21C |  | 0.562 µM [rising, full curve]
11 | COc1cccc(CN(C)CC(=O)NCc2ccccc2Cl)c1 | 0.0224 µM [falling, full curve, poor fit] | 
12 | COCCn1c(=O)c(CCc2ccccc2)nc2cnc(Oc3ccc(OC)cc3)nc21 | 17.8 µM [falling, single point] | 
13 | CCNNC(=O)C(O)(c1cccc(C)c1)c1cccc(C)c1 |  | 15.8 µM [rising, partial curve, poor fit]
14 | CCOC(=O)c1sc(N=NC2=C(O)CC(C)(C)CC2=O)c(C(=O)OCC)c1C | 1 µM [rising, partial curve] | 
15 | O=C(CCc1nnc(CCCCc2ccccc2)o1)NCc1cccc(F)c1 | 0.0224 µM [rising, full curve, poor fit] | 
16 | CC(C)(C)c1ccc(C(=O)Nc2ccc3nc(SCC(=O)N4CCCC4)sc3c2)cc1 | 10 µM [falling, partial curve, poor fit] | 
17 | O=c1cc(CN2CCN(c3ccccc3)CC2)c2c(ccc3ccccc32)o1 | 25.1 µM [rising, single point] | 
18 | O=C(O)CCCNC(=O)c1cccc(C(=O)NCCCC(=O)O)n1 |  | 11.2 µM [rising, partial curve]
19 | COc1ccc(NC(=O)CSc2nc(O)cc(=O)n2-c2ccccc2OC)cc1 | 0.178 µM [falling, full curve, poor fit] | 0.00447 µM [falling, full curve, poor fit]
20 | Cc1nc(Nc2ccc3c(c2)OCCO3)c2nnn(Cc3ccccc3Cl)c2n1 | 35.5 µM [rising, single point] | 35.5 µM [rising, single point]
21 | CCc1ccc(S(=O)(=O)Nc2c(C)nn(C)c2C)cc1 | 10 µM [rising, partial curve] | 10 µM [rising, partial curve]
22 | CCOC(=O)c1ccc(NC(=O)CSc2nc3cccnc3n2C)cc1 |  | 25.1 µM [rising, partial curve]
23 | c1ccc(CNc2nc(-c3ccoc3)nc3ccccc23)cc1 | 15.8 µM [falling, partial curve, poor fit] | 20 µM [falling, partial curve, poor fit]
24 | CC(C)C(C(=O)NC1=NCCS1)c1ccc(Cl)cc1 (stereo not given) |  | 12.6 µM [rising, partial curve]
25 | COC(=O)/C(=N\Nc1ccccc1)Sc1nnc(-c2ccc(OC)cc2)n1C |  | 35.5 µM [rising, single point]
26 | COC(=O)C1=C(C)N(C)C(=S)NC1c1ccc(Cl)cc1 (stereo not given) |  | 0.00447 µM [falling, full curve, poor fit]
27 | COc1ccc(-c2nc3oc4cc(OC)ccc4c(=O)c3c(=O)n2Cc2ccco2)cc1 |  | 35.5 µM [rising, single point]

Row | Compound | AC50 [1] | AC50 [2]
28 | CC(=O)N1CCc2c(sc(NC(=O)c3ccc([N+](=O)[O-])o3)c2C#N)C1 |  | 22.4 µM [falling, single point]
29 | O=C1NC2c3ccccc3C(=O)N2c2c1cnn2-c1ccccc1 (stereo not given) |  | 17.8 µM [rising, single point]
30 | Cc1ccc(OCC(=O)NNc2c3ccccc3nc3ccccc23)cc1 | 35.5 µM [falling, single point] | 3.98 µM [rising, single point]
31 | CCOC(=O)/C=C/C(=O)Nc1nccs1 | 35.5 µM [falling, single point] | 35.5 µM [falling, single point]
32 | OCCN1CCN(CCCN2c3ccccc3Sc3ccc(Cl)cc32)CC1 | 12.6 µM [falling, single point] and 17.8 µM [falling, partial curve] and 25.1 µM [falling, single point] | 3.16 µM [rising, single point] and 11.2 µM [falling, partial curve, poor fit] and 20 µM [falling, partial curve, poor fit]
33 | O=[N+]([O-])c1cccc(-c2c[n+]3c(n2-c2ccccc2)SCC3)c1 | 6.31 µM [falling, single point] | 
34 | CCCn1c(=O)c(C(=O)N/N=C/c2ccccc2F)c(O)c2ccccc21 | 5.62 µM [falling, partial curve] | 6.31 µM [falling, partial curve, poor fit]
35 | Cc1nc2ccccc2c2oc(C(=O)N3CCc4ccccc4C3)cc12 |  | 22.4 µM [rising, single point]
36 | Cc1[nH]n(C(N)=S)c(=O)c1N=Nc1ccc2ccccc2c1 |  | 5.01 µM [falling, partial curve, poor fit]
37 | O=C1C2C3c4ccccc4C(c4ccccc43)C2C(=O)N1CN1CCOCC1 (stereo not given) |  | 5.62 µM [rising, single point]
38 | C/C=C/c1ccc(OCCOCCOc2cccc3cccnc23)c(OC)c1 |  | 5.62 µM [rising, full curve, poor fit]
39 | CCC(C)(C)n1nnnc1C(c1ccccc1)N1CCN(Cc2ccccc2)CC1 (stereo not given) |  | 10 µM [falling, partial curve]
40 | CCOC(=O)c1sc(NC(=O)Nc2cccc(Cl)c2)cc1C |  | 14.1 µM [rising, partial curve, poor fit]
41 | CCCn1c2ccccc2c2cnn(CC(=O)Nc3ccccc3OC)c(=O)c21 | 4.47 µM [rising, single point] | 5.62 µM [rising, single point]
42 | O=c1c2[nH]c3ccccc3c2nc(SCc2ccccc2F)n1-c1ccc(F)cc1 | 35.5 µM [falling, single point] | 20 µM [falling, partial curve]
43 | Cc1nn(-c2ccccc2)c2c1N(CCCC(=O)NCc1ccc(OC(C)C)cc1)C(=O)CS2 |  | 1 µM [rising, full curve]
44 | COc1ccc(NC(=O)c2cc(S(=O)(=O)N(C)C)ccc2N2CCCC2)cc1Cl |  | 6.31 µM [rising, partial curve]
45 | O=C(O)c1ccc(N2C(=O)/C(=C/C=C/c3ccccc3)SC2=S)cc1 |  | 0.01 µM [rising, full curve, poor fit]
46 | Cc1[nH]n(-c2cccc(Cl)c2)c(=O)c1/C=N/n1c(C)nc2ccccc2c1=O |  | 12.6 µM [rising, partial curve, poor fit]
47 | c1ccc2[nH]c(CN3CCN(c4ncnc5c4oc4ccccc45)CC3)nc2c1 | 11.2 µM [rising, partial curve, poor fit] | 22.4 µM [rising, single point]
48 | CCC(=NCCc1c(C)[nH]c2ccccc12)C1=C(O)CC(c2ccccc2)CC1=O (stereo not given) |  | 31.6 µM [falling, single point]
49 | CCNC(=S)N1CCN(c2cccc(C(F)(F)F)c2)CC1 |  | 20 µM [rising, single point]
50 | O=C(C1CCCCC1)N1CCCC(c2nc(-c3ccc(F)cc3)no2)C1 (stereo not given) | 14.1 µM [rising, single point] | 
51 | O=S(=O)(c1ccc(N2CCN(Cc3ccc4c(c3)OCO4)CC2)nc1)N1CCOCC1 |  | 2 µM [rising, full curve, poor fit]
52 | CCn1c(=O)cc(SCC(=O)N2CCN(c3ccccn3)CC2)c2ccccc21 |  | 35.5 µM [rising, single point]
53 | CCOc1ccc(CNc2cccc(SC)c2)cc1 |  | 11.2 µM [falling, partial curve]
54 | COc1ccc(NC(=O)CSc2nc3ccccc3n2CC(=O)NCc2ccc(F)cc2)cc1 |  | 0.501 µM [rising, partial curve]
